# Reference: the supplement of paper PMC8728848
# Some of the results follow.
# Key:
# Assay in all cases: glycan array binding signal (z-score within array); higher = stronger binding
# Conditions in all cases: glycan notation: IUPAC condensed, linker removed
# [1] = molecular target: Fuc(a1-3)[Gal3S(b1-4)]GlcNAc6S
# Summary of the method: (§1)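 The binding signal is a Z-score computed within each array. Data were drawn from 3228 arrays in the Consortium for Functional Glycomics database, restricted to those with a known protein sequence. Scores were averaged over arrays of the same protein sequence at different concentrations or buffers, and over linkers, and negative values can be taken as non-binding.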
# [2] = molecular target: Fuc(a1-3)[GalNAc(b1-4)]GlcNAc
# Summary of the method: as §1
# [3] = molecular target: Fuc(a1-3)[GalNAc(b1-4)]GlcNAc6S
# Summary of the method: as §1
# Fuc(a1-4)GlcNAc = molecular target: Fuc(a1-4)GlcNAc
# Summary of the method: as §1
# Fuc(b1-3)GlcNAc = molecular target: Fuc(b1-3)GlcNAc
# Summary of the method: as §1
# Gal(a1-2)Gal = molecular target: Gal(a1-2)Gal
# Summary of the method: as §1
# Gal(a1-3)Gal = molecular target: Gal(a1-3)Gal
# Summary of the method: as §1
# Gal(a1-3)Gal(b1-3)GlcNAc = molecular target: Gal(a1-3)Gal(b1-3)GlcNAc
# Summary of the method: as §1
# [4] = molecular target: Gal(a1-3)Gal(b1-3)GlcNAc(b1-2)Man
# Summary of the method: as §1
# [5] = molecular target: Gal(a1-3)Gal(b1-3)GlcNAc(b1-2)Man(a1-3)[Gal(a1-3)Gal(b1-3)GlcNAc(b1-2)Man(a1-6)]Man(b1-4)GlcNAc(b1-4)GlcNAc
# Summary of the method: as §1
# [6] = molecular target: Gal(a1-3)Gal(b1-3)GlcNAc(b1-3)GalNAc
# Summary of the method: as §1
# [7] = molecular target: Gal(a1-3)Gal(b1-3)GlcNAc(b1-6)GalNAc
# Summary of the method: as §1
# [8] = molecular target: Gal(a1-3)Gal(b1-3)[Fuc(a1-4)]GlcNAc(b1-2)Man(a1-3)[Gal(a1-3)Gal(b1-3)[Fuc(a1-4)]GlcNAc(b1-2)Man(a1-6)]Man(b1-4)GlcNAc(b1-4)GlcNAc
# Summary of the method: as §1
# Gal(a1-3)Gal(b1-4)Glc = molecular target: Gal(a1-3)Gal(b1-4)Glc
# Summary of the method: as §1
# Gal(a1-3)Gal(b1-4)GlcNAc = molecular target: Gal(a1-3)Gal(b1-4)GlcNAc
# Summary of the method: as §1
# [9] = molecular target: Gal(a1-3)Gal(b1-4)GlcNAc(b1-2)Man
# Summary of the method: as §1
# [10] = molecular target: Gal(a1-3)Gal(b1-4)GlcNAc(b1-2)Man(a1-3)[Gal(a1-3)Gal(b1-4)GlcNAc(b1-2)Man(a1-6)]Man(b1-4)GlcNAc(b1-4)GlcNAc
# Summary of the method: as §1
# [11] = molecular target: Gal(a1-3)Gal(b1-4)GlcNAc(b1-3)GalNAc
# Summary of the method: as §1
# [12] = molecular target: Gal(a1-3)Gal(b1-4)GlcNAc(b1-6)GalNAc
# Summary of the method: as §1
# [13] = molecular target: Gal(a1-3)Gal(b1-4)[Fuc(a1-3)]GlcNAc
# Summary of the method: as §1
# [14] = molecular target: Gal(a1-3)Gal(b1-4)[Fuc(a1-3)]GlcNAc(b1-2)Man(a1-3)[Gal(a1-3)Gal(b1-4)[Fuc(a1-3)]GlcNAc(b1-2)Man(a1-6)]Man(b1-4)GlcNAc(b1-4)GlcNAc
# Summary of the method: as §1
# Gal(a1-3)GalNAc = molecular target: Gal(a1-3)GalNAc
# Summary of the method: as §1
# [15] = molecular target: Gal(a1-3)[Gal(a1-4)]Gal(b1-4)GlcNAc
# Summary of the method: as §1
# [16] = molecular target: Gal(a1-4)Gal(b1-3)GlcNAc(b1-2)Man(a1-3)[Gal(a1-4)Gal(b1-3)GlcNAc(b1-2)Man(a1-6)]Man(b1-4)GlcNAc(b1-4)GlcNAc
# Summary of the method: as §1
# Gal(a1-4)Gal(b1-4)Glc = molecular target: Gal(a1-4)Gal(b1-4)Glc
# Summary of the method: as §1
# Gal(a1-4)Gal(b1-4)GlcNAc = molecular target: Gal(a1-4)Gal(b1-4)GlcNAc
# Summary of the method: as §1
# [17] = molecular target: Gal(a1-4)Gal(b1-4)GlcNAc(b1-2)Man(a1-3)[Gal(a1-4)Gal(b1-4)GlcNAc(b1-2)Man(a1-6)]Man(b1-4)GlcNAc(b1-4)GlcNAc
# Summary of the method: as §1
# [18] = molecular target: Gal(a1-4)Gal(b1-4)GlcNAc(b1-3)Gal(b1-4)Glc
# Summary of the method: as §1
# Gal(a1-4)GlcNAc = molecular target: Gal(a1-4)GlcNAc
# Summary of the method: as §1
# Gal(a1-6)Glc = molecular target: Gal(a1-6)Glc
# Summary of the method: as §1
# Gal(b1-2)Gal = molecular target: Gal(b1-2)Gal
# Summary of the method: as §1
# Gal(b1-3)Gal = molecular target: Gal(b1-3)Gal
# Summary of the method: as §1
# Gal(b1-3)Gal(b1-4)GlcNAc = molecular target: Gal(b1-3)Gal(b1-4)GlcNAc
# Summary of the method: as §1
# Gal(b1-3)GalNAc = molecular target: Gal(b1-3)GalNAc
# Summary of the method: as §1
# [19] = molecular target: Gal(b1-3)GalNAc(a1-3)[Fuc(a1-2)]Gal(b1-4)Glc
# Summary of the method: as §1
# [20] = molecular target: Gal(b1-3)GalNAc(a1-3)[Fuc(a1-2)]Gal(b1-4)GlcNAc
# Summary of the method: as §1
# Gal(b1-3)GalNAc(b1-3)Gal = molecular target: Gal(b1-3)GalNAc(b1-3)Gal
# Summary of the method: as §1
# [21] = molecular target: Gal(b1-3)GalNAc(b1-3)Gal(a1-4)Gal(b1-4)Glc
# Summary of the method: as §1
# [22] = molecular target: Gal(b1-3)GalNAc(b1-4)Gal(b1-4)Glc
# Summary of the method: as §1
# [23] = molecular target: Gal(b1-3)GalNAc(b1-4)[Neu5Ac(a2-3)]Gal(b1-4)Glc
# Summary of the method: as §1
# Gal(b1-3)GlcNAc = molecular target: Gal(b1-3)GlcNAc
# Summary of the method: as §1
# [24] = molecular target: Gal(b1-3)GlcNAc(a1-3)Gal(b1-4)GlcNAc
# Summary of the method: as §1
# [25] = molecular target: Gal(b1-3)GlcNAc(a1-6)Gal(b1-4)GlcNAc
# Summary of the method: as §1
# Gal(b1-3)GlcNAc(b1-2)Man = molecular target: Gal(b1-3)GlcNAc(b1-2)Man
# Summary of the method: as §1
# [26] = molecular target: Gal(b1-3)GlcNAc(b1-2)Man(a1-3)[Gal(b1-3)GlcNAc(b1-2)Man(a1-6)]Man(b1-4)GlcNAc(b1-4)GlcNAc
# Summary of the method: as §1
binder,measurement,setting,value
Lb MiSSP8 (Laccaria bicolor) (protein) MYFHTLFACATLMLITTAHASPTVINSLDSRKADLNGDVEARHAADWRRDSDWRRDSDWRRDSDWRRDSD,glycan array binding signal (z-score),[1],0.851
same,glycan array binding signal (z-score),[2],1.06
same,glycan array binding signal (z-score),[3],-0.592
same,glycan array binding signal (z-score),Fuc(a1-4)GlcNAc,2
same,glycan array binding signal (z-score),Fuc(b1-3)GlcNAc,0.982
same,glycan array binding signal (z-score),Gal(a1-2)Gal,-0.047
same,glycan array binding signal (z-score),Gal(a1-3)Gal,-0.633
same,glycan array binding signal (z-score),Gal(a1-3)Gal(b1-3)GlcNAc,-0.392
same,glycan array binding signal (z-score),[4],-0.64
same,glycan array binding signal (z-score),[5],0.416
same,glycan array binding signal (z-score),[6],-0.502
same,glycan array binding signal (z-score),[7],-0.806
same,glycan array binding signal (z-score),[8],1.55
same,glycan array binding signal (z-score),Gal(a1-3)Gal(b1-4)Glc,0.133
same,glycan array binding signal (z-score),Gal(a1-3)Gal(b1-4)GlcNAc,-0.778
same,glycan array binding signal (z-score),[9],-0.751
same,glycan array binding signal (z-score),[10],0.016
same,glycan array binding signal (z-score),[11],-0.702
same,glycan array binding signal (z-score),[12],-0.599
same,glycan array binding signal (z-score),[13],-0.488
same,glycan array binding signal (z-score),[14],1.93
same,glycan array binding signal (z-score),Gal(a1-3)GalNAc,-0.074
same,glycan array binding signal (z-score),[15],-0.999
same,glycan array binding signal (z-score),[16],0.119
same,glycan array binding signal (z-score),Gal(a1-4)Gal(b1-4)Glc,0.209
same,glycan array binding signal (z-score),Gal(a1-4)Gal(b1-4)GlcNAc,0.392
same,glycan array binding signal (z-score),[17],10.8
same,glycan array binding signal (z-score),[18],1.15
same,glycan array binding signal (z-score),Gal(a1-4)GlcNAc,-0.35
same,glycan array binding signal (z-score),Gal(a1-6)Glc,-0.088
same,glycan array binding signal (z-score),Gal(b1-2)Gal,-0.267
same,glycan array binding signal (z-score),Gal(b1-3)Gal,0.043
same,glycan array binding signal (z-score),Gal(b1-3)Gal(b1-4)GlcNAc,-0.447
same,glycan array binding signal (z-score),Gal(b1-3)GalNAc,0.123
same,glycan array binding signal (z-score),[19],-0.447
same,glycan array binding signal (z-score),[20],-0.267
same,glycan array binding signal (z-score),Gal(b1-3)GalNAc(b1-3)Gal,1.8
same,glycan array binding signal (z-score),[21],0.595
same,glycan array binding signal (z-score),[22],0.878
same,glycan array binding signal (z-score),[23],-0.095
same,glycan array binding signal (z-score),Gal(b1-3)GlcNAc,-0.171
same,glycan array binding signal (z-score),[24],-0.682
same,glycan array binding signal (z-score),[25],-0.136
same,glycan array binding signal (z-score),Gal(b1-3)GlcNAc(b1-2)Man,0.727
same,glycan array binding signal (z-score),[26],-0.295

# An excerpt of these results, with bars between the fields:
binder | measurement | setting | value
Lb MiSSP8 (Laccaria bicolor) (protein) MYFHTLFACATLMLITTAHASPTVINSLDSRKADLNGDVEARHAADWRRDSDWRRDSDWRRDSDWRRDSD | glycan array binding signal (z-score) | [2] | 1.06
same | glycan array binding signal (z-score) | [3] | -0.592
same | glycan array binding signal (z-score) | [4] | -0.64
same | glycan array binding signal (z-score) | [6] | -0.502
same | glycan array binding signal (z-score) | Gal(a1-3)Gal(b1-4)Glc | 0.133
same | glycan array binding signal (z-score) | [12] | -0.599
same | glycan array binding signal (z-score) | [13] | -0.488
same | glycan array binding signal (z-score) | Gal(a1-3)GalNAc | -0.074
same | glycan array binding signal (z-score) | Gal(a1-4)Gal(b1-4)GlcNAc | 0.392
same | glycan array binding signal (z-score) | Gal(b1-3)Gal(b1-4)GlcNAc | -0.447
same | glycan array binding signal (z-score) | [22] | 0.878
